Our source for the cell number change and AC50 values is PubChem BioAssay AID2685 (National Center for Advancing Translational Sciences (NCATS), 2010).

This experiment is described as follows: qHTS Assay for Lipid Storage Modulators in Drosophila S3 Cells.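 For cell number change: cells counted by Cell Tracker Red CMTPX staining in the red channel.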 Particulars: BODIPY lipid droplet fluorescence, 18-24 h; for cell number change: measured here: cell count max response, cells fed with added oleic acid. In outline:
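Drosophila S3 cells got compounds at several concentrations plus oleic acid (400 uM solution). Laser-scanning cytometry with 488 nm excitation read lipid droplets at 500-530 nm and cells at 575-640 nm. Percent activity was relative to 20 uM Triacsin C.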
A general note: qHTS replaces the single test concentration by a dilution series.

[1] abbreviates: measured here: lipid fluorescence (Fed channel) AC50, cells fed with added oleic acid.
Where [2] appears, read: measured here: cell number channel AC50, cells fed with added oleic acid.

Molecules are shown by their SMILES. Several values for one entry are separate records, joined by “and”; a condition that tells them apart may be missing. Equal values may be shown once. The list shows a part of the results. The main result of the screen is listed elsewhere. These columns were measured beside it and carry no call. Compounds called inactive in the main read-out are mostly missing here. Potencies come from curve fits of mixed quality, noted in brackets.

For orientation: AC50 means the concentration at which the activity in the assay is half-maximal. Low values mean greater potency, high ones weaker potency.

As for `N#Cc1cc(C(=O)c2ccccc2OCC(=O)Nc2ccccc2Cl)cn(C2CCCCC2)c1=O`, the cell number change stood at 15.9%. Further, the AC50 under setting [1] was 0.231 µM [rising, partial curve, poor fit].
For `Fc1ccccc1N1CCN(Cc2cccnc2)CC1`, the cell number change came out at 21%. Further, the AC50 under setting [1] was 18.4 µM [rising, single point].
In the case of `CCc1nnc(-n2nc(C)cc2-c2ccccc2)n1N`, under setting [1], the AC50 was 0.259 µM [falling, full curve].
For the compound `COc1ccc(C(=S)N2CCOCC2)cc1OC(=O)c1ccc(C)cc1`, the cell number change was found to be 15.4%. The half-maximal activity concentration (AC50) under setting [2] is 0.259 µM [rising, partial curve, poor fit]. Further, the AC50 under setting [1] was 5.17 µM [falling, single point].
Consider `N#Cc1ccc(Cl)cc1NC(=O)COC(=O)c1ccc2c(c1)OCCO2`, for which, under setting [1], the AC50 is 2.59 µM [rising, partial curve].
In the case of `O=C1c2cccc(OCC(=O)N3CCCc4ccccc43)c2CCN1Cc1ccc(Br)cc1`, the cell number change is -2.01%. The AC50 under setting [1] was 32.6 µM [falling, single point].
For the compound `CCC[n+]1c(C)sc2c(OC)ccc(OC)c21`, the cell number change worked out at 11.3%. For the same compound, the AC50 under setting [1] was 3.26 µM [rising, single point].
`CCOC(=O)N1CCN(C(=O)CNC(=O)c2ccc(Br)cc2)CC1`: the cell number change came to 41.9%. Further, under setting [2], the AC50 was 29.1 µM [rising, single point].
In the case of `C=CS(=O)(=O)c1ccc(Oc2ccc(S(=O)(=O)C=C)cc2)cc1`, the cell number change is -86.7%. Moreover, the AC50 under setting [2] is 14.6 µM [falling, partial curve]. Also, under setting [1], the AC50 is 5.8 µM [falling, full curve].
With `Oc1ccccc1C=NC1CCCCC1N=Cc1ccccc1O` (stereo not drawn), the cell number change was -0.149%. Moreover, the AC50 under setting [1] is 0.731 µM [rising, single point].
Regarding `N#Cc1c(-c2cccnc2)c2c([nH]c1=S)CCCC2`, the cell number change was determined as 1.03%. In addition, under setting [1], the AC50 was 0.651 µM [rising, partial curve].
For `CCOC(=O)N1CCN(C(=O)C2CCN(CC3CCCCC3)CC2)CC1`, the cell number change is 11.9%. For the same compound, the AC50 under setting [1] is 0.164 µM [falling, full curve].
As to `Cc1cc(C)nc(/N=C(\N)Nc2cccc(OCc3ccccc3)c2)n1`, the cell number change is 9.07%.
For `CC1(C)CC(CCNC(=O)c2ccco2)CC(C)(C)N1`, the cell number change was -32.1%. Moreover, under setting [2], the AC50 was 32.6 µM [falling, single point]. Besides, under setting [1], the AC50 is 25.9 µM [falling, partial curve].
For `CC(=O)Nc1ccc(N(C)S(C)(=O)=O)cc1`, the cell number change was -23.5%. In addition, under setting [2], the AC50 is 2.31 µM [falling, partial curve, poor fit]. In addition, the AC50 under setting [1] is 8.2 µM [falling, partial curve, poor fit].
In the case of `Cc1c(C(=O)OC2CCCCC2)[nH]c2c1C(=O)CC(C)(C)C2`, the cell number change stood at 1.09%. Moreover, the AC50 under setting [1] was 3.66 µM [rising, single point].
As to `CCc1c(C)sc(NC(=O)CSc2nc3c(c(C(F)(F)F)n2)CCc2ccccc2-3)c1C#N`, the AC50 under setting [2] is 0.092 µM [rising, full curve, poor fit] and the AC50 under setting [1] was 0.082 µM [rising, full curve, poor fit].
Consider `CC(=O)Nc1ccc(NS(=O)(=O)c2cc(-c3cnc(C4CC4)o3)ccc2C)cc1`, for which the cell number change was -11.6%.
For the compound `COc1ccccc1CNC(=O)c1ccc(Br)o1`, the cell number change came out at 4.95%. The AC50 under setting [1] is 7.31 µM [falling, single point].
`COc1ccccc1NCC(=O)N/N=C/c1sccc1C`: the cell number change was -1.59%.
In the case of `S=C(NCc1ccco1)NCc1ccccc1Cl`, the cell number change was -4.53%. In addition, under setting [2], the AC50 is 7.31 µM [rising, partial curve]. Also, the AC50 under setting [1] was 2.06 µM [rising, partial curve, poor fit].
Consider `CCCCCOC(=O)C1C(c2ccccc2)C(C(=O)O)C1c1ccccc1` (stereo not drawn), for which the cell number change turned out to be 33%. Moreover, under setting [2], the concentration at half-maximal activity (AC50) is 29.1 µM [rising, single point]. The AC50 under setting [1] was 0.326 µM [rising, full curve, poor fit].
For `Cc1cc(C(=O)N2CCCC(C(=O)c3cc(F)ccc3F)C2)c(C)o1` (stereo not drawn), the cell number change was -11.6%. For the same compound, the AC50 under setting [1] was 0.291 µM [falling, full curve, poor fit].
As for `CC(C)N(C)C1CCN(S(=O)(=O)c2ccc(-c3ccc(=O)[nH]n3)s2)CC1`, the cell number change is -2.45%. The AC50 under setting [1] was 7.31 µM [falling, full curve, poor fit].
On to `CC(C)O/C(=N\S(=O)(=O)c1ccc(Cl)cc1)c1ccccc1`, for which the cell number change was -31.5%. Moreover, under setting [2], the AC50 is 0.13 µM [falling, full curve]. Further, under setting [1], the concentration at half-maximal activity (AC50) is 0.731 µM [falling, partial curve, poor fit].
Take `CC/C(=N\NC(C)=O)c1ccc(OC(F)F)cc1`: the cell number change was -11.7%. Besides, the AC50 under setting [1] was 6.51 µM [falling, full curve, poor fit].
Turning to `COc1ccc(NC(=S)NNC(=O)COc2ccc(Cl)cc2Cl)cc1`, the cell number change is -25.2%. Also, the AC50 under setting [1] was 29.1 µM [falling, single point].
`CCC(CC)C1=NN2C(=N)/C(=C/c3ccc(OC(=O)c4ccco4)cc3)C(=O)N=C2S1`: the cell number change was -0.298%. The AC50 under setting [1] was 2.31 µM [rising, partial curve].
For the compound `Cc1cccc(NC(=O)c2ccc(Cn3cc(C(F)(F)F)ccc3=O)cc2)c1`, the cell number change was 19.8%. In addition, the AC50 under setting [1] is 2.91 µM [falling, single point].
For the compound `CC(NCc1ccc2c(c1)OCO2)c1ccccc1` (stereo not drawn), the cell number change was determined as 17.1%. Further, the AC50 under setting [1] is 0.461 µM [rising, full curve, poor fit].
In the case of `CCOc1cc(C(=O)OCc2ccc([N+](=O)[O-])cc2)ccc1OCC(=O)N1CCOCC1`, the cell number change was found to be 37%. Moreover, the AC50 under setting [1] is 7.31 µM [rising, partial curve].
As for `O=C(NCc1cccs1)c1noc2c1CCCC2`, the cell number change came to 9.04%.
As for `CCCn1c(C)cc(C(=O)CN2C(=O)c3cccc(N)c3C2=O)c1C`, the cell number change came to 31.4%. The AC50 under setting [2] is 2.06 µM [rising, single point].
Take `CCOC(=O)C1CCCN(c2c(N3CCN(C)CC3)c(=O)c2=O)C1` (stereo not drawn): the cell number change is -22.2%. The AC50 under setting [2] is 0.651 µM [falling, full curve, poor fit]. Also, the AC50 under setting [1] is 11.6 µM [falling, partial curve].
Consider `O=C(Cn1nc2n(c1=O)-c1ccccc1SC2)N/N=C/c1ccncc1`, for which the cell number change is 39.3%. Under setting [2], the AC50 is 3.26 µM [rising, full curve]. The AC50 under setting [1] was 2.91 µM [rising, full curve].
`COc1ccc(S(=O)(=O)N[C@@H](CSCc2ccccc2)C(=O)O)cc1`: the cell number change came out at 15.9%. The AC50 under setting [1] is 6.51 µM [falling, single point].
Consider `O=S(=O)(Nc1nc2ccccc2nc1NCCO)c1cccc(Cl)c1`, for which the cell number change turned out to be 26.3%.
Turning to `COc1ccc(-c2c(-c3cc(OC)cc(OC)c3)n(C)c3ccc(-c4ccc(OC)nc4)cc23)cc1`, the cell number change was -8.28%. For the same compound, under setting [2], the AC50 is 0.00461 µM [rising, full curve, poor fit].
Regarding `Cc1cc(C)c(NC(=O)CN2C(=O)NC3(CCCc4ccccc43)C2=O)c(Cl)c1` (stereo not drawn), the cell number change is 2.81%. The AC50 under setting [2] is 0.116 µM [rising, full curve, poor fit].
In the case of `COc1ccc(NC(=O)COC(=O)c2ccc(OC)c(S(=O)(=O)N3CCCC3)c2)cc1OC`, the cell number change was -9.97%. The AC50 under setting [2] was 6.51 µM [rising, single point]. The AC50 under setting [1] was 6.51 µM [rising, partial curve].
Turning to `COc1cc(/C=C(\C#N)C(=O)N2CCCCC2)ccc1O`, the cell number change was -1.4%.
As for `Cc1cccc(C)c1NC(=O)COC(=O)Cc1ccsc1`, the cell number change is 10.3%. For the same compound, the AC50 under setting [1] was 0.326 µM [falling, single point].
For the compound `O=C(O)c1cn(-c2ccc(F)cc2)c(=O)c2ccccc12`, the cell number change was -37.5%. In addition, under setting [2], the AC50 is 29.1 µM [falling, single point].
With `CC(=O)Nc1cccc(C(=O)OCCCOc2ccc(F)cc2)c1`, the cell number change came to 36.5%. In addition, under setting [2], the AC50 was 12.6 µM [rising, partial curve, poor fit].
For the compound `O=C(OCCCc1cc2ccccc2c(=O)o1)c1ccccc1C(F)(F)F`, the cell number change was -7.01%. In addition, the AC50 under setting [1] is 0.517 µM [rising, single point].
In the case of `CC(C)(C)OC(=O)N1CCN(C(=O)c2[nH]cnc2C(=O)Nc2cccc(Cl)c2)CC1`, the cell number change is -46.7%. Also, under setting [2], the AC50 was 4.61 µM [falling, single point]. Moreover, the AC50 under setting [1] was 29.1 µM [falling, single point].
As to `CC(C(=O)c1ccc(-c2ccccc2)cc1)[n+]1cccc(C(N)=O)c1` (stereo not drawn), the cell number change was -14.3%.
The same measure, in the same setting: as for `O=C(COC(=O)c1ccc(Cl)s1)c1ccc[nH]1`, the figure is -16.1%.
As for `CCCOc1ccc(NC(=O)CC2C(=O)N(c3ccc(OCC)cc3)C(=S)N2C2CC2)cc1` (stereo not drawn), the cell number change stood at 76.5%. Moreover, the AC50 under setting [2] is 29.1 µM [rising, single point].
Regarding `O=C(Nc1cccc(Cl)c1)c1cnn2cccnc12`, the cell number change stood at 234%. Further, the AC50 under setting [2] was 9.2 µM [rising, partial curve]. For the same compound, the AC50 under setting [1] was 2.91 µM [rising, partial curve].
`CC(C)(c1ccccc1)c1ccc(OCC2CO2)cc1` (stereo not drawn): the cell number change is 13.3%.
Turning to `Cc1oc(CC(C)C)cc1C(=O)Nc1cccc2ccccc12`, the cell number change is -9.51%. Moreover, the AC50 under setting [2] is 6.51 µM [rising, single point]. Under setting [1], the AC50 was 23.1 µM [falling, single point].
Turning to `CC1CCC(C(C)C)C(OC(=O)Cn2c(-c3ccc(Br)cc3)[n+](C)c3ccccc32)C1` (stereo not drawn), the cell number change was -57.9% and -60.8%. Further, the AC50 under setting [2] is 5.17 µM [falling, full curve] and 206 nM [falling, full curve, poor fit]. For the same compound, the AC50 under setting [1] is 5.8 µM [falling, full curve] and 1.3 µM [falling, full curve].
Take `COc1ccc(-c2nc3c(s2)CCc2onc(-c4ccc(OC)cc4)c2-3)cc1`: the cell number change is 32.6%. In addition, under setting [2], the AC50 was 18.4 µM [rising, single point].
For the compound `Cc1ccc2ccc(C)[n+](CCCS(=O)(=O)[O-])c2c1`, the AC50 is 1.03 µM [falling, full curve] under setting [2] and 1.03 µM [falling, full curve] under setting [1].
As to `Cc1oc2c(c(C)cc3oc(=O)c(CC(=O)NCC(=O)NCC(=O)O)c(C)c32)c1C`, the cell number change stood at 3.78%. Moreover, under setting [1], the AC50 was 9.2 µM [falling, partial curve].
As to `CCS(=O)(=O)N1CCC(C(=O)NCC2CCCO2)CC1` (stereo not drawn), the cell number change amounted to 40.7%. In addition, under setting [2], the AC50 is 0.231 µM [rising, full curve]. Besides, the AC50 under setting [1] is 0.103 µM [rising, full curve, poor fit].
